Test results reported in PMC7847540.
No constants are given. Whether binding was seen depends on the method and setting. Binding seen in cells or lysates may run through a third protein. A yes stands for co-enrichment or nearness to the bait. Other partners may have been found. No binding means not detected with the bait.

Sequences of proteins named here, by UniProt entry; tags and fusion partners are left off. A change or cut given only in a name is not applied to a line headed by its entry.
UniProt P9WPB9, whole entry, stated change not applied: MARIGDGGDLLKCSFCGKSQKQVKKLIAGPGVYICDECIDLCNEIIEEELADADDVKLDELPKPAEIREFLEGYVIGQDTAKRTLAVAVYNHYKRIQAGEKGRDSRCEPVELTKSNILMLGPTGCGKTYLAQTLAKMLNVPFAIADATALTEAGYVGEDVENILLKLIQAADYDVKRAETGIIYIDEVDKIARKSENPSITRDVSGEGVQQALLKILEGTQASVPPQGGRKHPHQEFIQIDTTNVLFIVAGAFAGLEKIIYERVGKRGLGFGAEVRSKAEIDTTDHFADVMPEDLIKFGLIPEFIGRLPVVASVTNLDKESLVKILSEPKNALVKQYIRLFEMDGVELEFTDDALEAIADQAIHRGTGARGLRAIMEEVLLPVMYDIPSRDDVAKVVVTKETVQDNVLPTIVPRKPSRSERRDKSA

Target: N-terminally 6×His-tagged ClpX (His6ClpX) from M. tuberculosis, overproduced in M. smegmatis (M. tuberculosis) (UniProt P9WPB9)
Assay: affinity purification with mass spectrometry

## FtsZ, M. smegmatis (from UniProt A0R012 1-385)
  binding: no binding

## single-stranded-DNA binding protein (SSB), M. smegmatis (from UniProt Q9AFI5 1-165)
  binding: binds
